Results from patent US9307767B2, “Herbicidally and insecticidally active thiazolopyridinones” (BAYER INTELLECTUAL PROPERTY GMBH, priority 2012, dated 2016).
Some results were stated once for a whole list of compounds, not compound by compound.

Key:
Format in all cases: in vivo
[1] = tested on: Veronica persica; assay: Pre-emergence herbicidal action against weed plants; conditions: application rate 1280 g/ha, visual assessment after 3 weeks
[2] = tested on: Echinochloa crus galli; assay: Post-emergence herbicidal action against weed plants; conditions: visual assessment after about 3 weeks
[3] = tested on: Echinochloa crus galli; assay: Pre-emergence herbicidal action against weed plants; conditions: application rate 1280 g/ha, visual assessment after 3 weeks
[4] = tested on: Setaria viridis; assay: Post-emergence herbicidal action against weed plants; conditions: visual assessment after about 3 weeks

Cc1ccc(-c2ccc(Cl)cc2)cc1-c1c(O)c2scnc2n(C)c1=O [I-a-38]
at least 80%: herbicidal activity against Veronica persica [1] | herbicidal activity against Echinochloa crus galli ([2]; application rate 320 g/ha) | herbicidal activity against Echinochloa crus galli [3]

Cc1ccc(-c2ccc(Cl)cc2)cc1-c1c(O)c2scnc2n(CC(F)F)c1=O [I-a-39]
at least 80%: herbicidal activity against Veronica persica [1] | herbicidal activity against Setaria viridis ([4]; application rate 320 g/ha) | herbicidal activity against Echinochloa crus galli [3]

6-(4′-chloro-4-methylbiphenyl-3-yl)-5-oxo-4-(prop-2-yn-1-yl)-4,5-dihydro[1,3]thiazolo[4,5]pyridin-7-yl 2-methylpropanoate [I-a-42]
at least 80%: herbicidal activity against Echinochloa crus galli ([2]; application rate 80 g/ha) | herbicidal activity against Setaria viridis ([4]; application rate 80 g/ha) | herbicidal activity against Setaria viridis ([4]; application rate 320 g/ha)
